{
  "source": "patent US9156879B1",
  "about": "“Chromatography media” (Merck Sharp & Dohme Corp., priority 2010, dated 2015)",
  "origin": "cited, not measured here",
  "details": "critical micelle concentration of detergent",
  "note": "For at least one compound, name, drawing or mass did not settle the structure.",
  "data": [
    {"smiles": "CCCCCCCCCCCCCCCC[N+](C)(C)C.[Br-]", "note": "[C16TAB]", "values": [
      {"measurement": "CMC Molarity", "result": "1 × 10−3 Molarity"}
    ]}
  ]
}
